Test results published in article PMC5148066.
Results are given in words; binding and its absence hold for the method and conditions named. For some assays here: Binding calls can cover weak binding; strength is not graded here.

B1: mouse CX3CL1 (ligand, UniProt O35188 25-336)
chain: QHLGMTKCEIMCDKMTSRIPVALLIRYQLNQESCGKRAIVLETTQHRRFCADPKEKWVQDAMKHLDHQAAALTKNGGKFEKRVDNVTPGITLATRGLSPSALTKPESATLEDLALELTTISQEARGTMGTSQEPPAAVTGSSLSTSEAQDAGLTAKPQSIGSFEAADISTTVWPSPAVYQSGSSSWAEEKATESPSTTAPSPQVSTTSPSTPEENVGSEGQPPWVQGQDLSPEKSLGSEEINPVHTDNFQERGPGNTVHPSVAPISSEETPSPELVASGSQAPKIEEPIHATADPQKLSVLITPVPDTQAAT
B2: mouse CCL3 (ligand, UniProt P10855 24-92)
chain: APYGADTPTACCFSYSRKIPRQFIVDYFETSSLCSQPGVIFLTKRNRQICADSKETWVQEYITDLELNA
B3: mouse CXCL10 (ligand, UniProt P17515 22-98)
chain: IPLARTVRCNCIHIDDGPVRMRAIGKLEIIPASLSCPRVEIIATMKKNDEQRCLNPESKTIKNLMKAFSQKRSKRAP
B4: mouse CCL22 (ligand, UniProt O88430 25-92)
chain: GPYGANVEDSICCQDYIRHPLPSRLVKEFFWTSKSCRKPGVVLITVKNRDICADPRQVWVKKLLHKLS

Key:
[1] = target: Bovine papular stomatitis virus chemokine-binding protein (Bovine papular stomatitis virus); experiment: SPR; BPSV-CBP immobilised on a CM5 chip (~500 RU, amine coupling, 10 mM sodium acetate pH 4.5); serial dilutions of mouse chemokines in HBS-EP pH 7.4 flowed in triplicate, 3 min association, 10 min dissociation, 25°C, Biacore X100; global fit, 1:1 binding model; both purified
[2] = target: Bovine papular stomatitis virus chemokine-binding protein (Bovine papular stomatitis virus (strain V660 named for the sequence analysis)); experiment: SPR; BPSV-CBP immobilised on a CM5 chip (~500 RU) by amine coupling; serial dilutions of mouse chemokines in HBS-EP (20 mM HEPES, 150 mM NaCl, 3.4 mM EDTA, 0.005% Polysorbate 20, pH 7.4) run in triplicate, 3 min association, 10 min dissociation; 25°C, Biacore X100; global fit with a 1:1 binding model; both purified

Binder | binding [1] | binding [2]
B1 | no binding | no binding
B2 | – | binds
B3 | – | no binding
B4 | – | no binding
